# Where “and” joins values, the source holds several entries; their conditions need not be identical. Identical values can stand only once.
# Assays:
# [1] = system: engineered Saccharomyces cerevisiae CEN.PK strain (NISO not included); assay: Morphinan alkaloid accumulation in opiate-producing yeast strain fed salutaridine; format: cell-based; conditions: replicates 1-4
# [2] = Sucrose density-gradient fractionation of latex, relative abundance of BIAs in gradient fractions; set-up: species or system Papaver somniferum
# PR10-12 = assay: ANS displacement assay; format: binding, Papaver somniferum; conditions: ANS displacement dose-response fit
# Excerpt: (§1) Eluates were store separately on ice.
# (§2) Displacement of ANS is associated with reduced fluorescence.
# PR10-4 = assay: ANS displacement assay; format: binding, Papaver somniferum; conditions: ANS displacement dose-response fit
# Excerpt: as §1, §2
# MLP2 = assay: ANS displacement assay; format: binding, Papaver somniferum; conditions: ANS displacement dose-response fit
# Excerpt: as §1, §2
# [3] = 2 h salutaridine feeding, EV strain
# [4] = 2 h salutaridine feeding, MLP2 strain
# [5] = 2 h salutaridine feeding, MLP15 strain
# [6] = 2 h salutaridine feeding, NISO strain
# [7] = 2 h salutaridine feeding, PR10-4 strain
# [8] = 2 h salutaridine feeding, PR10-10 strain
# [9] = 2 h salutaridine feeding, PR10-12 strain
# [10] = 6 h salutaridine feeding, EV strain
# [11] = 6 h salutaridine feeding, MLP2 strain
# [12] = 6 h salutaridine feeding, MLP15 strain
# [13] = 6 h salutaridine feeding, NISO strain
# [14] = 6 h salutaridine feeding, PR10-4 strain
# [15] = 6 h salutaridine feeding, PR10-10 strain
# [16] = 6 h salutaridine feeding, PR10-12 strain
compound,measurement,setting,value
COc1ccc2c3c1O[C@H]1[C@@H](O)CC=C4[C@@H](C2)N(C)CC[C@]431 [Neopine],Alkaloid accumulation in yeast,[1]; [3],90.1045 ug/ul/OD and 102.598 ug/ul/OD and 99.8567 ug/ul/OD and 129.514 ug/ul/OD
same,Alkaloid accumulation in yeast,[1]; [4],185.318 ug/ul/OD and 162.512 ug/ul/OD and 214.081 ug/ul/OD and 199.068 ug/ul/OD
same,Alkaloid accumulation in yeast,[1]; [5],186.914 ug/ul/OD and 216.809 ug/ul/OD and 151.679 ug/ul/OD and 178.175 ug/ul/OD
same,Alkaloid accumulation in yeast,[1]; [6],41.8682 ug/ul/OD and 68.2355 ug/ul/OD and 66.817 ug/ul/OD and 52.682 ug/ul/OD
same,Alkaloid accumulation in yeast,[1]; [7],149.026 ug/ul/OD and 177.227 ug/ul/OD and 187.803 ug/ul/OD and 167.415 ug/ul/OD
same,Alkaloid accumulation in yeast,[1]; [8],218.051 ug/ul/OD and 165.458 ug/ul/OD and 172.221 ug/ul/OD and 155.958 ug/ul/OD
same,Alkaloid accumulation in yeast,[1]; [9],219.002 ug/ul/OD and 235.566 ug/ul/OD and 193.739 ug/ul/OD and 175.392 ug/ul/OD
same,Alkaloid accumulation in yeast,[1]; [10],599.662 ug/ul/OD and 537.685 ug/ul/OD and 618.641 ug/ul/OD and 731.645 ug/ul/OD
same,Alkaloid accumulation in yeast,[1]; [11],618.023 ug/ul/OD and 659.534 ug/ul/OD and 837.009 ug/ul/OD and 779.078 ug/ul/OD
same,Alkaloid accumulation in yeast,[1]; [12],700.107 ug/ul/OD and 775.519 ug/ul/OD and 620.885 ug/ul/OD and 697.077 ug/ul/OD
same,Alkaloid accumulation in yeast,[1]; [13],260.266 ug/ul/OD and 339.365 ug/ul/OD and 269.816 ug/ul/OD and 244.703 ug/ul/OD
same,Alkaloid accumulation in yeast,[1]; [14],612.932 ug/ul/OD and 864.219 ug/ul/OD and 718.083 ug/ul/OD and 710.823 ug/ul/OD
same,Alkaloid accumulation in yeast,[1]; [15],716.828 ug/ul/OD and 684.13 ug/ul/OD and 734.317 ug/ul/OD and 683.056 ug/ul/OD
same,Alkaloid accumulation in yeast,[1]; [16],729.161 ug/ul/OD and 693.948 ug/ul/OD and 667.134 ug/ul/OD and 709.514 ug/ul/OD
COC1=CC=C2[C@H]3Cc4ccc(O)c5c4[C@@]2(CCN3C)[C@H]1O5 [Oripavine],Alkaloid concentration in sucrose density-gradient fraction,"[2]; Cultivar T, fraction 1",2.778 mM
same,Alkaloid concentration in sucrose density-gradient fraction,"[2]; Cultivar T, fraction 2",3.420 mM
same,Alkaloid concentration in sucrose density-gradient fraction,"[2]; Cultivar T, fraction 3",1.728 mM
same,Alkaloid concentration in sucrose density-gradient fraction,"[2]; Cultivar T, fraction 4",0.957 mM
same,Alkaloid concentration in sucrose density-gradient fraction,"[2]; Cultivar T, fraction 5",0.493 mM
same,Alkaloid concentration in sucrose density-gradient fraction,"[2]; Cultivar T, fraction 6",0.482 mM
same,Alkaloid concentration in sucrose density-gradient fraction,"[2]; Cultivar T, fraction 7",0.333 mM
same,Alkaloid concentration in sucrose density-gradient fraction,"[2]; Cultivar T, fraction 8",0.275 mM
same,Alkaloid concentration in sucrose density-gradient fraction,"[2]; Cultivar T, fraction 9",0.240 mM
same,Alkaloid concentration in sucrose density-gradient fraction,"[2]; Cultivar T, fraction 10",0.283 mM
same,Alkaloid concentration in sucrose density-gradient fraction,"[2]; Cultivar T, fraction 11",0.421 mM
same,Alkaloid concentration in sucrose density-gradient fraction,"[2]; Cultivar T, fraction 12",0.481 mM
same,Alkaloid concentration in sucrose density-gradient fraction,"[2]; Cultivar T, fraction 13",0.408 mM
same,Alkaloid concentration in sucrose density-gradient fraction,"[2]; Cultivar T, fraction 14",0.507 mM
same,Alkaloid concentration in sucrose density-gradient fraction,"[2]; Cultivar T, fraction 15",0.488 mM
same,Alkaloid concentration in sucrose density-gradient fraction,"[2]; Cultivar T, fraction 16",0.461 mM
same,Alkaloid concentration in sucrose density-gradient fraction,"[2]; Cultivar T, fraction 17",0.654 mM
same,Alkaloid concentration in sucrose density-gradient fraction,"[2]; Cultivar T, fraction 18",0.706 mM
same,Alkaloid concentration in sucrose density-gradient fraction,"[2]; Cultivar T, fraction 19",0.627 mM
same,Alkaloid concentration in sucrose density-gradient fraction,"[2]; Cultivar T, fraction 20",0.649 mM
same,Alkaloid concentration in sucrose density-gradient fraction,"[2]; Cultivar T, fraction 21",0.775 mM
same,Alkaloid concentration in sucrose density-gradient fraction,"[2]; Cultivar T, fraction 22",0.885 mM
"COc1ccc2c(c1OC)C(=O)O[C@@H]2[C@H]1c2c(cc3c(c2OC)OCO3)CCN1C [Noscapine, noscapine]",Hill Slope,PR10-12,-0.65 ± 0.16
same,Hill Slope,PR10-4,-0.47 ± 0.17
"CN1CC[C@]23c4c5ccc(O)c4O[C@H]2[C@@H](O)C=C[C@H]3[C@H]1C5 [Morphine, morphine]",Alkaloid accumulation in yeast,[1]; [3],0 ug/ul/OD
same,Alkaloid accumulation in yeast,[1]; [4],0 ug/ul/OD
same,Alkaloid accumulation in yeast,[1]; [5],0 ug/ul/OD
same,Alkaloid accumulation in yeast,[1]; [6],31.8118 ug/ul/OD and 38.2354 ug/ul/OD and 42.3717 ug/ul/OD and 33.3759 ug/ul/OD
same,Alkaloid accumulation in yeast,[1]; [7],0 ug/ul/OD
same,Alkaloid accumulation in yeast,[1]; [8],0 ug/ul/OD
same,Alkaloid accumulation in yeast,[1]; [9],0 ug/ul/OD
same,Alkaloid accumulation in yeast,[1]; [10],4.642 ug/ul/OD and 4.6506 ug/ul/OD and 7.363 ug/ul/OD and 9.984 ug/ul/OD
same,Alkaloid accumulation in yeast,[1]; [11],4.891 ug/ul/OD and 4.488 ug/ul/OD and 7.508 ug/ul/OD and 6.933 ug/ul/OD
same,Alkaloid accumulation in yeast,[1]; [12],8.178 ug/ul/OD and 8.8501 ug/ul/OD and 5.846 ug/ul/OD and 6.1773 ug/ul/OD
same,Alkaloid accumulation in yeast,[1]; [13],252.218 ug/ul/OD and 294.519 ug/ul/OD and 267.006 ug/ul/OD and 243.832 ug/ul/OD
same,Alkaloid accumulation in yeast,[1]; [14],5.5784 ug/ul/OD and 6.627 ug/ul/OD and 6.367 ug/ul/OD and 7.072 ug/ul/OD
same,Alkaloid accumulation in yeast,[1]; [15],8.898 ug/ul/OD and 5.659 ug/ul/OD and 6.15 ug/ul/OD and 6.406 ug/ul/OD
same,Alkaloid accumulation in yeast,[1]; [16],9.97 ug/ul/OD and 9.655 ug/ul/OD and 8.617 ug/ul/OD and 7.255 ug/ul/OD
"COc1ccc(Cc2nccc3cc(OC)c(OC)cc23)cc1OC [Papaverine, papaverine]",Alkaloid concentration in sucrose density-gradient fraction,"[2]; Cultivar Roxanne, fraction 1",1.968 mM
same,Alkaloid concentration in sucrose density-gradient fraction,"[2]; Cultivar Roxanne, fraction 2",0.713 mM
same,Alkaloid concentration in sucrose density-gradient fraction,"[2]; Cultivar Roxanne, fraction 3",0.164 mM
same,Alkaloid concentration in sucrose density-gradient fraction,"[2]; Cultivar Roxanne, fraction 4",0.064 mM
same,Alkaloid concentration in sucrose density-gradient fraction,"[2]; Cultivar Roxanne, fraction 5",0.070 mM
same,Alkaloid concentration in sucrose density-gradient fraction,"[2]; Cultivar Roxanne, fraction 6",0.049 mM
same,Alkaloid concentration in sucrose density-gradient fraction,"[2]; Cultivar Roxanne, fraction 7",0.038 mM
same,Alkaloid concentration in sucrose density-gradient fraction,"[2]; Cultivar Roxanne, fraction 8",0.035 mM
same,Alkaloid concentration in sucrose density-gradient fraction,"[2]; Cultivar Roxanne, fraction 9",0.028 mM
same,Alkaloid concentration in sucrose density-gradient fraction,"[2]; Cultivar Roxanne, fraction 10",0.028 mM
same,Alkaloid concentration in sucrose density-gradient fraction,"[2]; Cultivar Roxanne, fraction 11",0.030 mM
same,Alkaloid concentration in sucrose density-gradient fraction,"[2]; Cultivar Roxanne, fraction 12",0.035 mM
same,Alkaloid concentration in sucrose density-gradient fraction,"[2]; Cultivar Roxanne, fraction 13",0.033 mM
same,Alkaloid concentration in sucrose density-gradient fraction,"[2]; Cultivar Roxanne, fraction 14",0.047 mM
same,Alkaloid concentration in sucrose density-gradient fraction,"[2]; Cultivar Roxanne, fraction 15",0.080 mM
same,Alkaloid concentration in sucrose density-gradient fraction,"[2]; Cultivar Roxanne, fraction 16",0.105 mM
same,Alkaloid concentration in sucrose density-gradient fraction,"[2]; Cultivar Roxanne, fraction 17",0.123 mM
same,Alkaloid concentration in sucrose density-gradient fraction,"[2]; Cultivar Roxanne, fraction 18",0.103 mM
same,Alkaloid concentration in sucrose density-gradient fraction,"[2]; Cultivar Roxanne, fraction 19",0.080 mM
same,Alkaloid concentration in sucrose density-gradient fraction,"[2]; Cultivar Roxanne, fraction 20",0.067 mM
same,Alkaloid concentration in sucrose density-gradient fraction,"[2]; Cultivar Roxanne, fraction 21",0.035 mM
same,Alkaloid concentration in sucrose density-gradient fraction,"[2]; Cultivar Roxanne, fraction 22",0.066 mM
same,Hill Slope,MLP2,-0.87 ± 0.12
same,Hill Slope,PR10-12,-1.70 ± 0.50
same,Hill Slope,PR10-4,-1.32 ± 0.20

# — paper PMC9646721, “Alkaloid binding to opium poppy major latex proteins triggers structural modification and functional aggregation” (Nature Communications, 2022)
